# Assay results reported in the supplement of paper PMC3334620.
# In all, about 33,000 sequences were measured (“E-score (-0.5 to 0.5)”: median about -0.0014, highest 2% from about 0.25 on). This is one part of the list.
# Biological target: T1, Cad1 (UniProt P24813)
# T1 sequence: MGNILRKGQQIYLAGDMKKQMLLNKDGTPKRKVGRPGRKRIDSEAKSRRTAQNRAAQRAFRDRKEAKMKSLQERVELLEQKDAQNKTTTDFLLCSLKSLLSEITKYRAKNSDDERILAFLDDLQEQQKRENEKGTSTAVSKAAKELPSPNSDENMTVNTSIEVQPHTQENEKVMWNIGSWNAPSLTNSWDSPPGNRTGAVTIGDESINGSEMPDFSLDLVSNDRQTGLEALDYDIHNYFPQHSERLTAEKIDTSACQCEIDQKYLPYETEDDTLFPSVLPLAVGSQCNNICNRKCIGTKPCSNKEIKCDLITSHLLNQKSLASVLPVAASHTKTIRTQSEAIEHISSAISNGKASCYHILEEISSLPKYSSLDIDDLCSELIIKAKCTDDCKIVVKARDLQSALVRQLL
# Assay: PBM E-score (8-mer binding enrichment) (E-score (-0.5 to 0.5)); higher = stronger / more preferred TF binding
# Details: protein concentration: 100 nM; construct: GST-full length
# Procedure: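 Universal 'all 10-mer' protein binding microarrays (Agilent AMADID 015681) probed with GST-tagged S. cerevisiae TFs (full-length or DBD) made by in vitro transcription/translation (PURExpress), about 100-200 nM. Bound TF was detected with fluorescent anti-GST. Each ungapped 8-mer (which stands for itself and its reverse complement) is scored by the PBM enrichment score (E-score), a modified Wilcoxon-Mann-Whitney statistic from -0.5 to +0.5, computed with the Universal PBM Analysis Suite. Scale: above 0.35 generally sequence-specific binding.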
row,Sequence,PBM E-score
1,AAGCCCGT,-0.204
2,GCCGACAA,0.0987
3,ATCTTTGA,-0.00269
4,GCACAGCC,-0.0327
5,ACCCGATG,0.103
6,TAAAAACA,0.213
7,TGGGTAAA,-0.207
8,CCAAACGC,-0.00589
9,GAGAAATC,0.107
10,ACGTCTCC,-0.151
11,GACTCCGA,0.0347
12,AATGGGAG,-0.0358
13,CGGCGACA,-0.00392
14,ACGTTGTG,0.0202
15,AAGCACGA,-0.0452
16,CACGCCAC,-0.0782
17,CAGAGGTC,-0.0835
18,CTGATTCC,-0.149
19,GAGGGCGA,-0.317
20,AATAGTTG,0.192
21,GCATTTAC,-0.0215
22,CCCGATCC,-0.297
23,CGTCACGC,0.0214
24,AAAACAAA,0.091
25,GCTGGAAC,-0.148

row,Sequence,PBM E-score
1,GCACGTGC,0.32
2,ACACCAAA,0.254
3,AGGTAACC,-0.00576
4,CGGATTCC,-0.015
5,ACAGCGCG,0.114
6,ATCTGTGC,0.0878
7,CGAGGAGA,-0.265
8,AAGTCAGT,-0.00706
9,CGCGCCTC,0.0878
10,AGTAATGA,0.127
11,GCCCGACC,-0.0915
12,AGTAGATA,0.282
13,AAGGCAAG,-0.242
14,AGGAAGTC,-0.225
15,AGTTGCCC,0.096
16,ACATTGAT,0.161
17,AGCCCACC,-0.131
18,GGGAAAAA,0.181
19,ACGATAGT,0.161
20,CTGGGGGC,-0.377
21,ATGAGGCG,-0.164
22,ATCGGTTG,0.132
23,AGCAACGG,0.0958
24,TGATCACA,0.123
25,AGCAATGA,0.0476

row,Sequence,PBM E-score
1,GGAGTTCA,-0.0351
2,CCTACGTA,-0.149
3,CTGGATCA,-0.151
4,AAATGGCG,-0.16
5,CGAATTCA,0.0615
6,AGCCAGGC,0.0257
7,TAGAACTA,0.0157
8,CGGCAATA,0.0935
9,TATTACAA,0.152
10,ACAACGAG,-0.0738
11,ATGCGGTA,-0.208
12,CCGTCTGC,-0.00418
13,AAATGTCG,0.0695
14,AGCCAAAT,0.0169
15,AATCTCAT,0.0796
16,CAGTCACA,0.179
17,CTAGGGGA,-0.202
18,CTCGACAG,-0.00093
19,AAGGAGCA,-0.183
20,CACAATCC,0.0771
21,ACTCACGA,0.0591
22,ATTTTTAG,0.0211
23,CTGGTGTC,0.0128
24,GACACTGC,-0.0407
25,CCATAACC,-0.113

row,Sequence,PBM E-score
1,TCGTCGCA,-0.0104
2,GAGCTGCC,-0.154
3,CGGAAAGA,-0.0252
4,CCAAACTA,-0.0349
5,AACGAACT,-0.0473
6,AGTACATG,-0.0558
7,GTAGTCGA,0.0225
8,ATTACTGG,-0.0522
9,ACTATGTG,-0.0308
10,ACCTGACA,0.0788
11,GGGTGTAC,-0.157
12,CCGGATCC,-0.0194
13,CCCAGTCA,-0.241
14,AAGCATGT,0.0317
15,GATAAAGC,0.0358
16,ACTTCCGG,-0.00579
17,CAGCGGTC,-0.229
18,ACCTGAAA,0.0769
19,AAGGGAGC,-0.279
20,AGGTGATC,0.0891
21,GAGGGTAC,-0.344
22,ACGTCCAT,0.0953
23,ATCCTACC,-0.119
24,CTCGCAGA,-0.0592
25,AGCCGGTG,-0.135

# 31 consecutive records already listed, for reference:
row,Sequence,PBM E-score
17,CTAGGGGA,-0.202
18,CTCGACAG,-0.00093
19,AAGGAGCA,-0.183
20,CACAATCC,0.0771
21,ACTCACGA,0.0591
22,ATTTTTAG,0.0211
23,CTGGTGTC,0.0128
24,GACACTGC,-0.0407
25,CCATAACC,-0.113
1,TCGTCGCA,-0.0104
2,GAGCTGCC,-0.154
3,CGGAAAGA,-0.0252
4,CCAAACTA,-0.0349
5,AACGAACT,-0.0473
6,AGTACATG,-0.0558
7,GTAGTCGA,0.0225
8,ATTACTGG,-0.0522
9,ACTATGTG,-0.0308
10,ACCTGACA,0.0788
11,GGGTGTAC,-0.157
12,CCGGATCC,-0.0194
13,CCCAGTCA,-0.241
14,AAGCATGT,0.0317
15,GATAAAGC,0.0358
16,ACTTCCGG,-0.00579
17,CAGCGGTC,-0.229
18,ACCTGAAA,0.0769
19,AAGGGAGC,-0.279
20,AGGTGATC,0.0891
21,GAGGGTAC,-0.344
22,ACGTCCAT,0.0953

# Later entries.

row,Sequence,PBM E-score
1,TCCGCTCA,-0.195
2,ATTGAAAC,0.0715
3,ACGTATTA,0.125
4,GGGTTACA,-0.0862
5,CACTCGTA,-0.161
6,ACTAATGA,0.128
7,GGAATTGA,0.0411
8,CAGGATTC,0.00521
9,GCACCTTA,0.034
10,CGGACTAC,-0.0671
11,CAGCAGGC,0.0279
12,ACTTAGAG,-0.171
13,AGCGCAGG,-0.0954
14,CGGCCACG,-0.121
15,CGATCACG,0.273
16,CGCGAAGC,0.219
17,ACAGTCTC,-0.184
18,ACATGCAG,0.0212
19,CTACCGAG,-0.0829
20,CTTTAATA,0.218
21,AGACAAAC,-0.0413
22,CGTCGAAC,-0.0156
23,AATAGGCC,-0.0239
24,AACAGGTA,-0.113
25,CTAGTGGC,-0.135

row,Sequence,PBM E-score
1,CAAACGAA,0.0543
2,ATGAGGTC,-0.214
3,AGTGGTCA,-0.143
4,ACTCAAAG,-0.0553
5,CCACCCGG,-0.154
6,AACAAACT,0.145
7,CTCAGCGA,0.0552
8,CCTCGACC,-0.171
9,CCGGATGA,0.116
10,AAGCGTGA,0.0493
11,AGCAAGCC,-0.113
12,GGAGTAGA,0.0431
13,ACGCGTAT,0.18
14,AGCCTAAG,-0.182
15,TATCGATA,0.131
16,ACCTGGAT,-0.225
17,CACACAGA,0.146
18,GTTGTCTA,0.0583
19,ATCGACAG,0.00447
20,CGTCTAAG,-0.00903
21,AGCTGGTC,0.0301
22,AACCTATA,0.121
23,CTTGTCGA,0.00022
24,ACTGTCCA,-0.0303
25,CCAAGACG,-0.0257

row,Sequence,PBM E-score
1,AAATTTGG,0.075
2,ATGAGTCC,-0.0879
3,ATAAGCGC,0.139
4,CAGTTCCG,-0.0436
5,CTGCACTC,-0.0313
6,AGACCCCG,0.095
7,AGAGCCAT,-0.16
8,GCCAGTCC,-0.237
9,CGCGGCAG,0.051
10,CCCACGTC,0.0348
11,GACAAAGC,0.06
12,AATGAGGG,-0.133
13,CTTGCACA,-0.0172
14,GACCCCTA,-0.248
15,GATCGAGC,0.171
16,ACTGTTTC,-0.0462
17,AGCCCGAC,-0.149
18,ACCTATCT,-0.102
19,GGCAGACC,-0.282
20,AGTGGCGC,-0.0478
21,GCGTACCA,0.00249
22,CGTCAGAA,-0.166
